Data reported in article PMC8534263.
Results are given in words; binding and its absence hold for the method and conditions named. In cells and extracts the contact can be indirect. Some results given as binding are weak or reduced against the parent protein; the word gives no strength.

Sequences of proteins named here, by UniProt entry; tags and fusion partners are left off.
UniProt A0A8I3NBF9: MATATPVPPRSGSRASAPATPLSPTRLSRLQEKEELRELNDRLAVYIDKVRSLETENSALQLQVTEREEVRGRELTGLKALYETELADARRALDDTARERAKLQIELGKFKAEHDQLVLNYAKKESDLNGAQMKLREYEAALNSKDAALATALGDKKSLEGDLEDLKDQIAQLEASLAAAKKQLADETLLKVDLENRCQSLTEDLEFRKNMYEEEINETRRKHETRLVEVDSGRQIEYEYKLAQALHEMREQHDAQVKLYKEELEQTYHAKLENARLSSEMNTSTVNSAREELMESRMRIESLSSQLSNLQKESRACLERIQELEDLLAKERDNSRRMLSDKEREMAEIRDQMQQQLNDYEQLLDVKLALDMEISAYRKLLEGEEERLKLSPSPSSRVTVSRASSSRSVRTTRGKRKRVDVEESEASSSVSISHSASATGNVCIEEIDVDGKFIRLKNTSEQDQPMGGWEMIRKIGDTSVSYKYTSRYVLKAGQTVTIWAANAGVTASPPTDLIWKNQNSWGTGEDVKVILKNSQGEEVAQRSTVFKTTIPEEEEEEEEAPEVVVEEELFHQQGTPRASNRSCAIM

B1: Zonula occludens 2 (ZO-2) (protein, UniProt Q95168 1-1174)
chain: MEELIWEQYTVTLQKDSKRGFGIAVSGGRDNPHFENGETSIVISDVLPGGPADGLLQENDRVVMVNGTPMEDVLHSFAVQQLRKSGKIAAIVVKRPRKVQLAPPQGSLPVDEDDRAFEVMDEFDGRSARSGYSERSRRSSHGGRSRSWEDSPERGRPHERAWSQERERSRGRSLERGLDHDDDYRRPRERSRGRSLERGLDHDDDYGRPGERSHGMSTDRGYDRGYDRGYDRGYDRTYSPEAEYGRRTQPDARHAGSRSRSREHLRSRSPSPELRGRPDHAGQPDSDRPIGVLLMKSKANEEYGLRLGSQIFIKQMTRTALATKDGNLHEGDIILKINGTVTENMSLTDARKLIEKSRGKLQLVVLRDSKQTLINIPSLNDSDSEIEDISEIESNRSFSPEERRQQYSDYDYHSSNEKLKERPNSREDMQNRWSRMGATPTPFKSMGDIASVVGTENSKEPRYQEEPPAPQPKAAPRTFLRPSPEDEAIYGPNTKMVRFKKGDSVGLRLAGGNDVGIFVAGIQEGTSAEQEGLQEGDQILKVNTQDFRGLVREDAVLYLLEIPKGEMVTILAQSRADVYRDILACGRGDSFFIRSHFECEKETPQSLAFSRGEVFRVVDTLYDGKLGHWLAVRIGNELEKGLIPNKSRAEQMASVQNAQRDNAGDRADFWRMRGQRSGMKKNLRKSREDLTAAVSVSTKFPAYERVLLREAGFKRPVVLFGPIADIALEKLANELPDLFQTAKTEPKDAGSEKSSGVVRLNTVRQIIEQDKHALLDVTPKAVDLLNYTQWFPIVIFFNPDSRQGVKTMRQRLNPTSNKSSRKLYDQANKLKKTCAHLFTATINLNSANDSWFGSLKDTIQHQQGEAVWVSEGKMEGMDDDPEDRMSYLTAMGADYLSCDSRLISDFEDTDGEGGAYTDNELDEPAEEPLVSSITRSSEPVQHEESIRKPSPEPRAQMRRAASRDQLRDSSPPPAFKPEPPKAKTQNREESFDISRSHDYKSNPSAVAGNEVSGASTRSCPPPIAAKPSFGRSILKPSTPVPSPESEEVGEGSEEQEGAPKSVLGKVKIFEKMDHKARLQRMQELQEAQNARIEIAQKHPDIYAVPIKTHKPDPGLSQHTSSRPPEPQKGPSRLYQDPRGSYGSDAEEEEYRQQLSEHSKRGYYSQPSRYRDTEL

What was measured:
[1] = target: T1, Zonula occludens 2 (ZO-2) (dog (endogenous in MDCK)) (UniProt Q95168); experiment: co-IP; immunoprecipitation of ZO-2 from sparse MDCK cells, Western blot of the partners; endogenous proteins
T1 sequence: B1 chain

[2] = target: lamin B1 (dog (endogenous in MDCK)); experiment: co-IP; immunoprecipitation of SUN-1 or lamin B1 from sparse MDCK cells, Western blot of ZO-2; endogenous proteins

Molecule	binding [1]	binding [2]
lamin B1 (from UniProt A0A8I3NBF9 1-586)	binds	
B1		binds
